PubChem BioAssay AID504764 | Drosophila RNAi Screening Center, 2011
The deposit covers about 22,000 reagents; this is a random part of those that have a named target and a result. Over the whole deposit, 403 (1.9%) are marked active. 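Unnormalised raw counts per well; ratio z-scores behind the hit calls and whether each hit raises or lowers signal are not deposited.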 Entries without a mark were called inactive. Not given: the amount of reagent.

Test: 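Genes whose knock-down alters Notch-dependent transcription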 (primary screen)
Cell system: Drosophila Kc167 cells
Reagent: long dsRNA against Drosophila genes
Timing: about 5 days (4 days dsRNA, then 24 h after transfection)
Conditions: transfection of constitutively active membrane-tethered Notch lacking the extracellular domain, read 24 h later
Measured: 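Firefly luciferase from an E(spl)m3 reporter with active Notch, plus control-promoter and uninduced reporter wells for normalisation; unnormalised counts, duplicate wells a and b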
Scale: induced reporter light, run 1, well a and induced reporter light, run 1, well b: higher = more light from the Notch target reporter with active Notch; control promoter light, run 1, well a and control promoter light, run 1, well b: higher = more light from the viral control promoter (cell number, transfection, viability); uninduced reporter light, run 1, well a: higher = more light from the Notch target reporter without active Notch
Hit rule: 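Wells with low control signal or poorly matching duplicates excluded; duplicates averaged; per source plate, z beyond ±2 for induced/control log2 ratio or beyond ±1.8 for induced/uninduced marks a hit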
Calls: active = modifier hit (raised or lowered Notch signal); inactive = not a hit

Against CG9518 [DRSC20194], the entry reads induced reporter light, run 1, well a = 1.05e5; induced reporter light, run 1, well b = 75215; control promoter light, run 1, well a = 1.24e5; control promoter light, run 1, well b = 91625; uninduced reporter light, run 1, well a = 13155.
CG16812 [DRSC02519] showed induced reporter light, run 1, well a = 2.50e5; induced reporter light, run 1, well b = 2.87e5; control promoter light, run 1, well a = 2.10e5; control promoter light, run 1, well b = 2.16e5; uninduced reporter light, run 1, well a = 22890.
Knock-down of Fpgs1 (Folylpolyglutamate synthase 1) [DRSC19857] came out at: induced reporter light, run 1, well a = 1.19e5; induced reporter light, run 1, well b = 1.08e5; control promoter light, run 1, well a = 1.75e5; control promoter light, run 1, well b = 1.87e5; uninduced reporter light, run 1, well a = 7492.
CG41520 [DRSC21102] gave induced reporter light, run 1, well a = 88665; induced reporter light, run 1, well b = 79640; control promoter light, run 1, well a = 1.11e5; control promoter light, run 1, well b = 98020; uninduced reporter light, run 1, well a = 6300.
With knock-down of CG41520 [DRSC21103] the results were induced reporter light, run 1, well a = 92035; induced reporter light, run 1, well b = 90505; control promoter light, run 1, well a = 1.24e5; control promoter light, run 1, well b = 1.32e5; uninduced reporter light, run 1, well a = 10760.
For bsd (back seat driver) [DRSC05953], the values are induced reporter light, run 1, well a = 69565; induced reporter light, run 1, well b = 86185; control promoter light, run 1, well a = 89870; control promoter light, run 1, well b = 1.19e5; uninduced reporter light, run 1, well a = 7165.
After knock-down of CG13983 [DRSC02315] the results were induced reporter light, run 1, well a = 99100; induced reporter light, run 1, well b = 75805; control promoter light, run 1, well a = 1.01e5; control promoter light, run 1, well b = 66145; uninduced reporter light, run 1, well a = 5305.
TwdlL (TweedleL) [DRSC16042] gave induced reporter light, run 1, well a = 2.05e5; induced reporter light, run 1, well b = 1.80e5; control promoter light, run 1, well a = 2.63e5; control promoter light, run 1, well b = 2.57e5; uninduced reporter light, run 1, well a = 12575.
CG13590 [DRSC04226] showed induced reporter light, run 1, well a = 1.60e5 (active); induced reporter light, run 1, well b = 1.47e5; control promoter light, run 1, well a = 1.37e5; control promoter light, run 1, well b = 1.32e5; uninduced reporter light, run 1, well a = 7860.
Knock-down of CG6340 [DRSC19987] came out at: induced reporter light, run 1, well a = 93795; induced reporter light, run 1, well b = 95215; control promoter light, run 1, well a = 1.28e5; control promoter light, run 1, well b = 1.06e5; uninduced reporter light, run 1, well a = 9605.
For CG3916 [DRSC15520], the values are induced reporter light, run 1, well a = 56325; induced reporter light, run 1, well b = 69045; control promoter light, run 1, well a = 65495; control promoter light, run 1, well b = 55860; uninduced reporter light, run 1, well a = 4510.
For CG14212 [DRSC19568] the deposit lists induced reporter light, run 1, well a = 68445; induced reporter light, run 1, well b = 77760; control promoter light, run 1, well a = 80870; control promoter light, run 1, well b = 1.00e5; uninduced reporter light, run 1, well a = 9875.

In a second layout: 2 of the entries above
| target gene | DRSC id | induced reporter light, run 1, well a | induced reporter light, run 1, well b | control promoter light, run 1, well a | control promoter light, run 1, well b | uninduced reporter light, run 1, well a |
| --- | --- | --- | --- | --- | --- | --- |
| CG41520 | DRSC21103 | 92035 | 90505 | 1.24e5 | 1.32e5 | 10760 |
| bsd (back seat driver) | DRSC05953 | 69565 | 86185 | 89870 | 1.19e5 | 7165 |
